Measurements from PMC11425837.

Chains of the proteins cited; added tags and fusions are not shown. Lines headed by an entry give the natural chain unless they say otherwise; changes in a name come on top. Residues count along the entry.
UniProt Q921I1: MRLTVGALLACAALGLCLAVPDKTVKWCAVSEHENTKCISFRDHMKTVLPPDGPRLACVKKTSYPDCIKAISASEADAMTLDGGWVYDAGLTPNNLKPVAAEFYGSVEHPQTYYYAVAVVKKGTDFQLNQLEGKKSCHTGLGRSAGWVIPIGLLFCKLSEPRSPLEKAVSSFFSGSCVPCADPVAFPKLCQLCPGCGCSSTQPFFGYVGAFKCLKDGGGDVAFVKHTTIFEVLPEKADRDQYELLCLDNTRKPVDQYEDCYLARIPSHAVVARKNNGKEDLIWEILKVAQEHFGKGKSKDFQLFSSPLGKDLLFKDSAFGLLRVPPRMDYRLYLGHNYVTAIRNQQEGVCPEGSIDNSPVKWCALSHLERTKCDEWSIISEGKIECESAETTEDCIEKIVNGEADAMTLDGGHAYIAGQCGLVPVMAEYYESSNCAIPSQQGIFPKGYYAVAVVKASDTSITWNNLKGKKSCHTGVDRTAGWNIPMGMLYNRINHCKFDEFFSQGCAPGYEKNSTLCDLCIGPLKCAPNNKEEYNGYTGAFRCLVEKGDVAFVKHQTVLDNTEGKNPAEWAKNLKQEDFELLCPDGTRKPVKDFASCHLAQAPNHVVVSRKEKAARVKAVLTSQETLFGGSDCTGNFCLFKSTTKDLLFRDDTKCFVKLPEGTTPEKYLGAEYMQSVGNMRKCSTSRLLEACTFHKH
UniProt Q9WUM5, residues 35-346: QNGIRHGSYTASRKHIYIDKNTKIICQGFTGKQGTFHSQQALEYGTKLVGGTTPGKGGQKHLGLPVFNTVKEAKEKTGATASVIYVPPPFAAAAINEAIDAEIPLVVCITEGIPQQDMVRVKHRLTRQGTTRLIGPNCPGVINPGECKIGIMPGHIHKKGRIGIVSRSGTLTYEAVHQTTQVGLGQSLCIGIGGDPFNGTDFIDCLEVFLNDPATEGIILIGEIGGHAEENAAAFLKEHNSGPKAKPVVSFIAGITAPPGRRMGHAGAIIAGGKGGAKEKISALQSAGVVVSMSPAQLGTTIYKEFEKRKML

T1: sentrin‐specific protease 1 (SENP1) (not stated (endogenous in primary cardiomyocytes; those of Figure 7B are from mice)) (UniProt P59110)
T1 sequence: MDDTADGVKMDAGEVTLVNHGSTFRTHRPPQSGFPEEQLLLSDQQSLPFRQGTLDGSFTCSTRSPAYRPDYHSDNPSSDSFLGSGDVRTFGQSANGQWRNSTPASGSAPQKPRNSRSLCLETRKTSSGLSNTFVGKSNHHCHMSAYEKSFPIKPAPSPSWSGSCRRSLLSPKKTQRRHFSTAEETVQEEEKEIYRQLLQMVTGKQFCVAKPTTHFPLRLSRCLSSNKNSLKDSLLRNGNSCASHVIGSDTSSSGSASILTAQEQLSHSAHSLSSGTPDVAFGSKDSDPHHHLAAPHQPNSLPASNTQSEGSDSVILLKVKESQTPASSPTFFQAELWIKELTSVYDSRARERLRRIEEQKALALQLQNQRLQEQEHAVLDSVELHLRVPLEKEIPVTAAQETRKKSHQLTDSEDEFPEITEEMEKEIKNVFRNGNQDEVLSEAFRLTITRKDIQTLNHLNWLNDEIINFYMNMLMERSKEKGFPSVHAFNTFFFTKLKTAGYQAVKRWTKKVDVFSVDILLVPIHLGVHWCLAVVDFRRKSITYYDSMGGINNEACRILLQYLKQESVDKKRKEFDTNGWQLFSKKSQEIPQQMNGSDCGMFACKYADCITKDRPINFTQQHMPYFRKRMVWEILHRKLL

B1: PiC (protein, UniProt Q8VEM8 46-357)
chain: AVEEYSCEFGSMKYYALCGFGGVLSCGLTHTAVVPLDLVKCRMQVDPQKYKGIFNGFSITLKEDGVRGLAKGWAPTLIGYSMQGLCKFGFYEVFKALYSNILGEENTYLWRTSLYLASSASAEFFADIALAPMEAAKVRIQTQPGYANTLREAVPKMYKEEGLNAFYKGVAPLWMRQIPYTMMKFACFERTVEALYKFVVPKPRSECTKAEQLVVTFVAGYIAGVFCAIVSHPADSVVSVLNKEKGSTASQVLQRLGFRGVWKGLFARIIMIGTLTALQWFIYDSVKVYFRLPRPPPPEMPESLKKKLGLTE
B2: PDHB (protein, UniProt Q9D051 31-359)
chain: VQLTVREAINQGMDEELERDEKVFLLGEEVAQYDGAYKVSRGLWKKYGDKRIIDTPISEMGFAGIAVGAAMAGLRPICEFMTFNFSMQAIDQVINSAAKTYYMSAGLQPVPIVFRGPNGASAGVAAQHSQCFAAWYGHCPGLKVVSPWNSEDAKGLIKSAIRDNNPVVMLENELMYGVAFELPAEAQSKDFLIPIGKAKIERQGTHITVVAHSRPVGHCLEAAAVLSKEGIECEVINLRTIRPMDIEAIEASVMKTNHLVTVEGGWPQFGVGAEICARIMEGPAFNFLDAPAVRVTGADVPMPYAKVLEDNSVPQVKDIIFAVKKTLNI
B3: ACADM1 (protein, UniProt P45952 26-421)
chain: KAAHKQEPGLGFSFELTEQQKEFQATARKFAREEIIPVAPEYDKSGEYPFPLIKRAWELGLINAHIPESCGGLGLGTFDACLITEELAYGCTGVQTAIEANSLGQMPVILAGNDQQKKKYLGRMTEQPMMCAYCVTEPSAGSDVAAIKTKAEKKGDEYVINGQKMWITNGGKANWYFLLARSNPDPKVPASKAFTGFIVEADTPGIHIGKKELNMGQRCSDTRGIAFEDVRVPKENVLIGEGAGFKIAMGAFDRTRPTVAAGAVGLAQRALDEATKYALDRKTFGKLLVEHQGVSFLLAEMAMKVELARLSYQRAAWEVDSGRRNTYYASIAKAFAGDIANQLATDAVQIFGGYGFNTEYPVEKLMRDAKIYQIYEGTAQIQRLIIAREHIEKYKN

Experiments:
[1] = molecular target: T1, sentrin‐specific protease 1 (SENP1) (not stated (endogenous in primary cardiomyocytes; those of Figure 7B are from mice)); test: affinity purification with mass spectrometry; immunoprecipitation with anti-SENP1 or anti-SUMO1 antibody from primary cardiomyocytes, with and without myocardial injury; mass spectrometry of what was pulled down
[2] = molecular target: SUMO1 (mouse (endogenous in primary cardiomyocytes from mice)) (UniProt P63166); test: as above

| Molecule | binding [1] | binding [2] |
| --- | --- | --- |
| TRF (from UniProt Q921I1 20-697) | binds | binds |
| SUCLG1 (from UniProt Q9WUM5 35-346) | binds | binds |
| B1 | binds | binds |
| B2 | binds | binds |
| B3 | binds | binds |

No constants are given. Whether binding was seen depends on the method and setting. Binding seen in cells or lysates may run through a third protein. These calls come from enrichment with a bait or labelling near it, and not all partners need be listed.
